# Test results published in publication doi:10.1101/2024.03.12.584494.
# The chains behind the UniProt entries cited, without tags or fusion partners. Residues count along the entry.
# UniProt Q62083: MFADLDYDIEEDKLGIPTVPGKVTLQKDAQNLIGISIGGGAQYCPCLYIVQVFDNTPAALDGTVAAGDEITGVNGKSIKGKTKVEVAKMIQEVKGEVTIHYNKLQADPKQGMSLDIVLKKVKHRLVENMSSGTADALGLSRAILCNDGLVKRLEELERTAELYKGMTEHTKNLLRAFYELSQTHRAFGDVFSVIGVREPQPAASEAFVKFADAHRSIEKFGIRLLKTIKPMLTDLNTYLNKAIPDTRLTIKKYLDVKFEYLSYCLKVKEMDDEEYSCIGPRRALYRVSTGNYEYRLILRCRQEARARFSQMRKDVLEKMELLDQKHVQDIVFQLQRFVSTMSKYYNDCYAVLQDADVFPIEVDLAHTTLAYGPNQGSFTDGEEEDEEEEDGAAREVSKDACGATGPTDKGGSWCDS
# UniProt Q5SXA9: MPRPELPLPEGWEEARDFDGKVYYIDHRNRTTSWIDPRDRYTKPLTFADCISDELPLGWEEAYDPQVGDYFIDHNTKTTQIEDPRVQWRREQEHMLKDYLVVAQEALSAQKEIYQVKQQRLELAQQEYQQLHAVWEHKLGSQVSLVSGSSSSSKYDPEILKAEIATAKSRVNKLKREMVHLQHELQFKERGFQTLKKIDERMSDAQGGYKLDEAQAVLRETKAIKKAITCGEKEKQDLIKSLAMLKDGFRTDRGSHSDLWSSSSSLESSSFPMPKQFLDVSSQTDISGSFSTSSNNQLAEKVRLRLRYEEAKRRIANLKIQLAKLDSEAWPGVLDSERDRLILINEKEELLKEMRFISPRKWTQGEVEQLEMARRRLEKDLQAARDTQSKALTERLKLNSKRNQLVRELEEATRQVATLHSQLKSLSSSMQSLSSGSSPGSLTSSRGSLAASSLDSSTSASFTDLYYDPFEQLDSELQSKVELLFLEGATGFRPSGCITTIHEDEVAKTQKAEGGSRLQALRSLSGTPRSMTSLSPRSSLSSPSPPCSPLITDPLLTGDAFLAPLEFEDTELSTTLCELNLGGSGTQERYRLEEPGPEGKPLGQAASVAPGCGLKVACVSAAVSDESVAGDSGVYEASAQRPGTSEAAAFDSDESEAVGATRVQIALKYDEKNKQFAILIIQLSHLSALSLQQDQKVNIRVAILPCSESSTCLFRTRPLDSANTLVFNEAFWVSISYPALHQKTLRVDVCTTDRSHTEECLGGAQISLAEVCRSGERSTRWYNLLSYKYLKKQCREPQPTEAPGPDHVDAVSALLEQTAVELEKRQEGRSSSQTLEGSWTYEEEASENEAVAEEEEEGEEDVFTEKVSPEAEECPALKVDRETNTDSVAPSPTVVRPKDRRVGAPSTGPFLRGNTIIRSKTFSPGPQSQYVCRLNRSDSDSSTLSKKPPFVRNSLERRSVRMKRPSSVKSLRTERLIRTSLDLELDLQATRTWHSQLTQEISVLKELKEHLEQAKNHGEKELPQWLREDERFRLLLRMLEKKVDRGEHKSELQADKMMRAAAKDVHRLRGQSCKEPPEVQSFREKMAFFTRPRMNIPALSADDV
# UniProt P19491, residues 22-883: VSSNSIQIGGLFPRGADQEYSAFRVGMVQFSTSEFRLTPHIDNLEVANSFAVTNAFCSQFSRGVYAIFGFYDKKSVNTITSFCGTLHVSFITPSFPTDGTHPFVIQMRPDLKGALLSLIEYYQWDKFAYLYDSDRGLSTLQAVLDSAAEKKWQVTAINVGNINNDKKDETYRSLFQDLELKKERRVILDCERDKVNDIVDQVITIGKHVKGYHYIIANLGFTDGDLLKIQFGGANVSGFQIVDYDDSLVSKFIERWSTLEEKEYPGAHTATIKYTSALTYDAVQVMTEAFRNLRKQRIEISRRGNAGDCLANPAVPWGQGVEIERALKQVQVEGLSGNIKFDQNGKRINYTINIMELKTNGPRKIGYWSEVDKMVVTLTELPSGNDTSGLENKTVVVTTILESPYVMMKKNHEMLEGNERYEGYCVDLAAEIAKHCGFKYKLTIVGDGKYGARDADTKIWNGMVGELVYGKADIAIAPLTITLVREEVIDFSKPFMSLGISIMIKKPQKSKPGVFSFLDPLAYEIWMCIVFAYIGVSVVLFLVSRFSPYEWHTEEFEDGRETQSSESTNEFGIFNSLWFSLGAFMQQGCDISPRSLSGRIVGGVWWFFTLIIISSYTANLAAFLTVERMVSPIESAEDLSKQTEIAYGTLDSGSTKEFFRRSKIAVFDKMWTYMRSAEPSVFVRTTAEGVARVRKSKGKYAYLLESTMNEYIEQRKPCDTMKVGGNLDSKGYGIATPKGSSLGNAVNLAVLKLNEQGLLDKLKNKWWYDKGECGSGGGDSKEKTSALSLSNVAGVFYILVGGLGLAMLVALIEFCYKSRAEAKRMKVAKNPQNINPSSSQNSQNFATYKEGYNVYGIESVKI
# Like-named read-outs stand apart in the source and are kept apart here. These are yes or no findings as the source states them, for the method shown. Binding seen in cells or lysates may run through a third protein. Some entries that bind do so weakly or less than the wild type.
# Columns and labels:
# Test in all cases: co-IP
# mGFP-PICK1 WT (mouse) [1] = biological target: mGFP-PICK1 WT (mouse) (UniProt Q62083)
# mGFP-PICK1 WT (mouse) [2] = biological target: mGFP-PICK1 WT (mouse) (UniProt Q62083); remark: listed apart in the source
# mCherry-PICK1 WT (mouse) = mCherry-PICK1 WT (mouse) (UniProt Q62083)
# mGFP-KIBRA WT (mouse) = mGFP-KIBRA WT (mouse) (UniProt Q5SXA9)
# mCherry-KIBRA WT (mouse) [3] = biological target: mCherry-KIBRA WT (mouse) (UniProt Q5SXA9)
# mCherry-KIBRA WT (mouse) [4] = biological target: mCherry-KIBRA WT (mouse) (UniProt Q5SXA9); remark: listed apart in the source
binding (mGFP-PICK1 WT (mouse) [2]),binding (mCherry-PICK1 WT (mouse)),Substance,further results
binds,–,Myc-GluA2 (from UniProt P19491 22-883) (receptor),binding (mGFP-PICK1 WT (mouse) [1]): binds
binds,–,mCherry-KIBRA WT (from UniProt Q5SXA9 1-1104),–

# More lines, now with the values behind:
Substance,binding (mGFP-PICK1 WT (mouse) [2]),binding (mCherry-PICK1 WT (mouse)),further results
Myc-KIBRA WT (from UniProt Q5SXA9 1-1104),–,binds,–
mGFP-KIBRA WT (from UniProt Q5SXA9 1-1104),–,binds,binding (mGFP-KIBRA WT (mouse)): binds
mGFP-PICK1 WT (from UniProt Q62083 1-416),–,–,binding (mCherry-KIBRA WT (mouse) [3]): binds; binding (mCherry-KIBRA WT (mouse) [4]): binds
